Laboratory results published in publication PMC4858382.
No constants are given. Whether binding was seen depends on the method and setting. Binding seen in cells or lysates may run through a third protein. Some results given as binding are weak or reduced against the parent protein; the word gives no strength. For part of these data: Sequences can lack the tags named with a protein.

Sequences of proteins named here, by UniProt entry; tags and fusion partners are left off.
UniProt Q4AC94: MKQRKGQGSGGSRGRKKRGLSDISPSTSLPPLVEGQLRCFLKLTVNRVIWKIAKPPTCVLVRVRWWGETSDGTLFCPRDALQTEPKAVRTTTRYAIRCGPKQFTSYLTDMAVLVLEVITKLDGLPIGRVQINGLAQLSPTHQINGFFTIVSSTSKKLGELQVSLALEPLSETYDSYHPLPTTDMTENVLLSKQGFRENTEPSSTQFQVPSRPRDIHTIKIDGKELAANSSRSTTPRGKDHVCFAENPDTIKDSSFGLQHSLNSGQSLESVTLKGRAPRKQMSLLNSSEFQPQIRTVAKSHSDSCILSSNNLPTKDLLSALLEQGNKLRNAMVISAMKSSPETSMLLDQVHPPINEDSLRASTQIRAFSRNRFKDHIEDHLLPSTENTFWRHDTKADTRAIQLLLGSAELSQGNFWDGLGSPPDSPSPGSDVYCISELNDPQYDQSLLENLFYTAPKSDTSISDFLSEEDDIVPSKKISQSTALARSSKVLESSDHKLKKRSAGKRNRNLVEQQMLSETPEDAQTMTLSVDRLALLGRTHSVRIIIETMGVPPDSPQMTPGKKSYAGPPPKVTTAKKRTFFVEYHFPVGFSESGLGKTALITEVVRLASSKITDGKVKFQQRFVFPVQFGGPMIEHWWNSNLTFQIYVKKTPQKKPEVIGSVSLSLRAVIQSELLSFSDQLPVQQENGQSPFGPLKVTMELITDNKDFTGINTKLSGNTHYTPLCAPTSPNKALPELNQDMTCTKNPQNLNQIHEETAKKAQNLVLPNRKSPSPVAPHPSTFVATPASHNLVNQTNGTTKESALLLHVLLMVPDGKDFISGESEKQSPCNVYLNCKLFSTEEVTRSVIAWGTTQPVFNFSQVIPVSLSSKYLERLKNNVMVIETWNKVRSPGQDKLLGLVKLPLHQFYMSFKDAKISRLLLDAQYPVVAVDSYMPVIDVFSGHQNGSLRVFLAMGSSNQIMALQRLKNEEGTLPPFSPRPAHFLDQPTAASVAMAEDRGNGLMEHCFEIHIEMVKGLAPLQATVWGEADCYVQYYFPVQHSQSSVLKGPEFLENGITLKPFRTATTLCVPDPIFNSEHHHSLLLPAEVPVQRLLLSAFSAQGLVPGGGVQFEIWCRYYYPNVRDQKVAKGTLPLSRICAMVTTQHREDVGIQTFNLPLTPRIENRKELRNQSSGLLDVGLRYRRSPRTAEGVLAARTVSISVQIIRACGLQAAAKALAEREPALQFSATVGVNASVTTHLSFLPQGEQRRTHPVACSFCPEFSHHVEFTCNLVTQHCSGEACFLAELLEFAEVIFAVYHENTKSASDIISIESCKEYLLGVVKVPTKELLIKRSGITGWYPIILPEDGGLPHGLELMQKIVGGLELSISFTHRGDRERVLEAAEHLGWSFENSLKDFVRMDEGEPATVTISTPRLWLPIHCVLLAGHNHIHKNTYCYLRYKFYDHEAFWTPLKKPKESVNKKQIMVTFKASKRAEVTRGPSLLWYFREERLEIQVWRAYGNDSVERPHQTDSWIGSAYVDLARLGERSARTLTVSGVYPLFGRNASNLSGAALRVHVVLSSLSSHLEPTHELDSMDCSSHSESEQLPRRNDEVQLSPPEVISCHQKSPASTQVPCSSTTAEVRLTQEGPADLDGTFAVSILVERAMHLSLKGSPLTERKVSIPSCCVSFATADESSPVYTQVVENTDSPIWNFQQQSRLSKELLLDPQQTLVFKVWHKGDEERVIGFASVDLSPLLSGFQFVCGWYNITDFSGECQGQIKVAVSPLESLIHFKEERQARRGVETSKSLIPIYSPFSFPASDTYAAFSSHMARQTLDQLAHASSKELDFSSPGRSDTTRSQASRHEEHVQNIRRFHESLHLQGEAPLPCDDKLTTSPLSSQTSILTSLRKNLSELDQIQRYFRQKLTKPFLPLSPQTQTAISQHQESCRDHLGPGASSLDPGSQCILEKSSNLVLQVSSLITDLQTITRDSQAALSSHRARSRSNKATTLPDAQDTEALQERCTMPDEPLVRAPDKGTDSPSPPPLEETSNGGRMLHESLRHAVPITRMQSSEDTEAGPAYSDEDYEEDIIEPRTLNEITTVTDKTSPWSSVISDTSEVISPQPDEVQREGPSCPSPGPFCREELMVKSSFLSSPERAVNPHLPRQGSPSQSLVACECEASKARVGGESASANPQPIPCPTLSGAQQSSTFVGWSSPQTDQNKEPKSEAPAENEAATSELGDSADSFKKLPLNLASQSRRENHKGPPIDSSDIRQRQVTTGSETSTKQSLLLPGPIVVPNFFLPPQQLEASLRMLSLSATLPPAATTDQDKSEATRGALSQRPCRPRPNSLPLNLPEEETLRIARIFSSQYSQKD
UniProt O15078: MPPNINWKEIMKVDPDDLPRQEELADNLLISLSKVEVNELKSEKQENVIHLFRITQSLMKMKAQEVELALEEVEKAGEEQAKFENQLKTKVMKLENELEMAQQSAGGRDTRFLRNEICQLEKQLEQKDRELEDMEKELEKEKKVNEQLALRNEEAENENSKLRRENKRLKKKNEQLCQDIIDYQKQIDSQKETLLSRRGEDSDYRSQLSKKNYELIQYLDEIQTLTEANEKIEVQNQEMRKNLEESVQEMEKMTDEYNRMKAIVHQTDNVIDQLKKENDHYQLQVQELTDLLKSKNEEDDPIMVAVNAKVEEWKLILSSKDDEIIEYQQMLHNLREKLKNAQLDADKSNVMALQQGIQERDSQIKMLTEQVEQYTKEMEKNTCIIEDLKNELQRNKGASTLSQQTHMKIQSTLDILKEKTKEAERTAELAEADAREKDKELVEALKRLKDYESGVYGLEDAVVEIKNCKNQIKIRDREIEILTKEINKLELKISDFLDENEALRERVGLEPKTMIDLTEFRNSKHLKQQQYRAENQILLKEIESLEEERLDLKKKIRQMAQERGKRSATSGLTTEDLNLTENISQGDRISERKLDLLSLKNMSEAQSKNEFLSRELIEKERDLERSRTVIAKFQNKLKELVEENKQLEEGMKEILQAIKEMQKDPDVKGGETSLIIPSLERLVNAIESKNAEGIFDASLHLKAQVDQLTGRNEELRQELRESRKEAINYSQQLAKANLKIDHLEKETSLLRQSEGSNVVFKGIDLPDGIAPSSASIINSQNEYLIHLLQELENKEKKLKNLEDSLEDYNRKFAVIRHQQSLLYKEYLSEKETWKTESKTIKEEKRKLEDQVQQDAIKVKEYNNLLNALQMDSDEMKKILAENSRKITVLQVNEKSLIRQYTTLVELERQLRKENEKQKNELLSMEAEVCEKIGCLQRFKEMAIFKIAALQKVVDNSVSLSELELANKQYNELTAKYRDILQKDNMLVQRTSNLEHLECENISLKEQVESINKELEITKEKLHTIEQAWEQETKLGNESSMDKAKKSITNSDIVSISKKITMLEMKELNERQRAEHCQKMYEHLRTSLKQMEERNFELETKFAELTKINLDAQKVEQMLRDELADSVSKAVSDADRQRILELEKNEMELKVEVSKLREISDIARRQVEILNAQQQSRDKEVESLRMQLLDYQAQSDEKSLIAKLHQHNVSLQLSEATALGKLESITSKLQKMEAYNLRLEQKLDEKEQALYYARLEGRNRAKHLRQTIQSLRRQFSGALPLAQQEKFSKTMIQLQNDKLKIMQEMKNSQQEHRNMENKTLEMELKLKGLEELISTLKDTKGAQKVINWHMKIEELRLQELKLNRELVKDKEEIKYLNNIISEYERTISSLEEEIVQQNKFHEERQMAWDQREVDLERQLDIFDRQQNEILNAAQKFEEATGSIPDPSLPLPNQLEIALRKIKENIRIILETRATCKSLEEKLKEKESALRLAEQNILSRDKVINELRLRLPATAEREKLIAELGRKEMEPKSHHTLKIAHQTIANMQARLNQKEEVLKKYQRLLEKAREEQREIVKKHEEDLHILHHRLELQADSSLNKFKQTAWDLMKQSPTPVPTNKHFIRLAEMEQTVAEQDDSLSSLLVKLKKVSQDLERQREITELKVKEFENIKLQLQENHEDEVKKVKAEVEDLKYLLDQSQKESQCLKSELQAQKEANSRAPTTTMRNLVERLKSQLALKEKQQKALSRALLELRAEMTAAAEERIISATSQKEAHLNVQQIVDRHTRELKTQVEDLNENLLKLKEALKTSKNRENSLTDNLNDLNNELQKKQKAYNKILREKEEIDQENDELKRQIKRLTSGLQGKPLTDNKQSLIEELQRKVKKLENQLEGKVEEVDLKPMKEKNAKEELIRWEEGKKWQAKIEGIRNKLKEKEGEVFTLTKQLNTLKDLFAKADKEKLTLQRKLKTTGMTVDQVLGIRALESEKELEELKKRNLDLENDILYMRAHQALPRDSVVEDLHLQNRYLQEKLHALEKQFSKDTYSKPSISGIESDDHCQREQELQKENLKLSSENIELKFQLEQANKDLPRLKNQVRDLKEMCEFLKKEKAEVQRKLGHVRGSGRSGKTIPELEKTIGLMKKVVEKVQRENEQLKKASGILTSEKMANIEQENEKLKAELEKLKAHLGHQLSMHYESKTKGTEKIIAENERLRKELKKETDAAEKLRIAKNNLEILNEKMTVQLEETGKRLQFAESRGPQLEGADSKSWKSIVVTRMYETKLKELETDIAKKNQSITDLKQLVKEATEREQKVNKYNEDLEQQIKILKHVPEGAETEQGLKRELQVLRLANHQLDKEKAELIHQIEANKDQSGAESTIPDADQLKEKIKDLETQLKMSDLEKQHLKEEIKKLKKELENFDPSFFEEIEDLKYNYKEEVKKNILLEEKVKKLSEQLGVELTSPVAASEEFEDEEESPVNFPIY

T1: Myc-mPCM1 fragment spanning residues 1–1200 (mouse) (UniProt Q9R0L6)
T1 sequence: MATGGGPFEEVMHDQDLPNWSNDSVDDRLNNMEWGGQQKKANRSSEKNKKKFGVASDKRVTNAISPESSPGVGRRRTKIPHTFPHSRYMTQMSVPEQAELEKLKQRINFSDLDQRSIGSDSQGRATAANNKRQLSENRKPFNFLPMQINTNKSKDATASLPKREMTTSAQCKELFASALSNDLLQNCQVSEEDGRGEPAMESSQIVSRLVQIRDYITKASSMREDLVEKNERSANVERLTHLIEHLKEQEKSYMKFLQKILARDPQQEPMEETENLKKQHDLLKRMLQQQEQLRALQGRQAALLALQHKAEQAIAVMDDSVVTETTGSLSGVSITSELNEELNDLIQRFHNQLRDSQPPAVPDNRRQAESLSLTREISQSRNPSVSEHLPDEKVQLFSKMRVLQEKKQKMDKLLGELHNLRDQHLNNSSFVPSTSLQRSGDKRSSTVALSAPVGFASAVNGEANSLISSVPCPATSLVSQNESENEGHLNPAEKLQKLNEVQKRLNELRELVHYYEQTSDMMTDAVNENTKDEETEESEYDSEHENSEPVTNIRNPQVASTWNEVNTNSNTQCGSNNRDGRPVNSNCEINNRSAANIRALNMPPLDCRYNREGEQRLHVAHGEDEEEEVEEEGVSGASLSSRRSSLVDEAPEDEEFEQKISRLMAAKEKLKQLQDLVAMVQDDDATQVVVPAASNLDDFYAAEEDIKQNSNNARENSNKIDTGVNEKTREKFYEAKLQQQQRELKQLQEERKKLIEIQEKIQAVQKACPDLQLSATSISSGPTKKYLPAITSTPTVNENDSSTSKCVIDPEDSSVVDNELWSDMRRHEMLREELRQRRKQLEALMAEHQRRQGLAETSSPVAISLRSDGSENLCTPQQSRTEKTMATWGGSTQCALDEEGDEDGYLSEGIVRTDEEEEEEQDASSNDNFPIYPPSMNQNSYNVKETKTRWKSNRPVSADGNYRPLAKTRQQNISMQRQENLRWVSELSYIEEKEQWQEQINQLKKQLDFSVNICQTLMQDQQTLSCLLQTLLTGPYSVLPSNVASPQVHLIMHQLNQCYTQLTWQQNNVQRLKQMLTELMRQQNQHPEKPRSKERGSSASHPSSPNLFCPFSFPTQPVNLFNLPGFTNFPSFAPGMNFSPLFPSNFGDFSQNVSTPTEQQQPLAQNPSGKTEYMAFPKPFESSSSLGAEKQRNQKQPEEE

T2: Myc-mPCM1 fragment spanning residues 1–1500 (mouse) (UniProt Q9R0L6)
T2 sequence: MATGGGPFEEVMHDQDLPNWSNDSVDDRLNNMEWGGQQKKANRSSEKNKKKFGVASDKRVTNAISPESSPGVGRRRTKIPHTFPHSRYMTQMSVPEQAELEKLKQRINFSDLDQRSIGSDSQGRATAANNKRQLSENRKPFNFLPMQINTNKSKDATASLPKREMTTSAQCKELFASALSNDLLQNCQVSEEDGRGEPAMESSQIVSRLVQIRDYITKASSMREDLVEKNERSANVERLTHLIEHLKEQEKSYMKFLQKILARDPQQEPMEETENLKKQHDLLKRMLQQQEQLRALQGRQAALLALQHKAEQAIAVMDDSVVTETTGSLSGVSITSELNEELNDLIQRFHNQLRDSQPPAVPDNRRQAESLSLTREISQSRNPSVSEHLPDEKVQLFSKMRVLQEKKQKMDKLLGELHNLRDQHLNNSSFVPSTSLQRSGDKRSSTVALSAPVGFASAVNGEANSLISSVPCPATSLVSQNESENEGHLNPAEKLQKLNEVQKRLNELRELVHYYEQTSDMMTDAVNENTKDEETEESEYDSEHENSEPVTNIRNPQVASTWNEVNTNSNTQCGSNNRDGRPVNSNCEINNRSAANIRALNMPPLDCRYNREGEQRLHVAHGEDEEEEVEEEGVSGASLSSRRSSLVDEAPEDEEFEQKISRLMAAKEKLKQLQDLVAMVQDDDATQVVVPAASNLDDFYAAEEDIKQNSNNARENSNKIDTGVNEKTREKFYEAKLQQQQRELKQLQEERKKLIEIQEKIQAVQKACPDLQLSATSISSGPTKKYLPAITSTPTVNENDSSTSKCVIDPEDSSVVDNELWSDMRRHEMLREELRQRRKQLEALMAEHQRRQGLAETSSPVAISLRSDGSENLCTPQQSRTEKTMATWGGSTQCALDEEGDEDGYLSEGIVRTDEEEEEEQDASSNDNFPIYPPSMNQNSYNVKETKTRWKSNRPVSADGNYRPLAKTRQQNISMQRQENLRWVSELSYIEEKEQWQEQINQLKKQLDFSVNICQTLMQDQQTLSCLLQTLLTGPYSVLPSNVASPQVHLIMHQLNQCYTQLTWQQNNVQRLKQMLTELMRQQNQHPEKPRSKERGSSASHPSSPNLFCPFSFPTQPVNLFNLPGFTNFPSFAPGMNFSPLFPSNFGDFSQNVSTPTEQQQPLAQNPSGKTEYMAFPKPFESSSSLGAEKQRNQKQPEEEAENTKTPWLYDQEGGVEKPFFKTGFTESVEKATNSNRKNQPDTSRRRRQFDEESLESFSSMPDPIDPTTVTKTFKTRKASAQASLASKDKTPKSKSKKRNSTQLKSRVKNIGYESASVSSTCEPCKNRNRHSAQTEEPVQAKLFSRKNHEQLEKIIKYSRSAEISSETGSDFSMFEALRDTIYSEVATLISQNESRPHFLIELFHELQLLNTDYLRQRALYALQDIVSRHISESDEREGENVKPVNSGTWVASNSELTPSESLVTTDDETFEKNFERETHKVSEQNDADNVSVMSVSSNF

B1: Cep90, endogenous (protein, UniProt Q8WXW3 1-757)
chain: MSRKISKESKKVNISSSLESEDISLETTVPTDDISSSEEREGKVRITRQLIERKELLHNIQLLKIELSQKTMMIDNLKVDYLTKIEELEEKLNDALHQKQLLTLRLDNQLAFQQKDASKYQELMKQEMETILLRQKQLEETNLQLREKAGDVRRNLRDFELTEEQYIKLKAFPEDQLSIPEYVSVRFYELVNPLRKEICELQVKKNILAEELSTNKNQLKQLTETYEEDRKNYSEVQIRCQRLALELADTKQLIQQGDYRQENYDKVKSERDALEQEVIELRRKHEILEASHMIQTKERSELSKEVVTLEQTVTLLQKDKEYLNRQNMELSVRCAHEEDRLERLQAQLEESKKAREEMYEKYVASRDHYKTEYENKLHDELEQIRLKTNQEIDQLRNASREMYERENRNLREARDNAVAEKERAVMAEKDALEKHDQLLDRYRELQLSTESKVTEFLHQSKLKSFESERVQLLQEETARNLTQCQLECEKYQKKLEVLTKEFYSLQASSEKRITELQAQNSEHQARLDIYEKLEKELDEIIMQTAEIENEDEAERVLFSYGYGANVPTTAKRRLKQSVHLARRVLQLEKQNSLILKDLEHRKDQVTQLSQELDRANSLLNQTQQPYRYLIESVRQRDSKIDSLTESIAQLEKDVSNLNKEKSALLQTKNQMALDLEQLLNHREELAAMKQILVKMHSKHSENSLLLTKTEPKHVTENQKSKTLNVPKEHEDNIFTPKPTLFTKKEAPEWSKKQKMKT
B2: OFD1, endogenous (protein, UniProt O75665 1-1012)
chain: MMAQSNMFTVADVLSQDELRKKLYQTFKDRGILDTLKTQLRNQLIHELMHPVLSGELQPRSISVEGSSLLIGASNSLVADHLQRCGYEYSLSVFFPESGLAKEKVFTMQDLLQLIKINPTSSLYKSLVSGSDKENQKGFLMHFLKELAEYHQAKESCNMETQTSSTFNRDSLAEKLQLIDDQFADAYPQRIKFESLEIKLNEYKREIEEQLRAEMCQKLKFFKDTEIAKIKMEAKKKYEKELTMFQNDFEKACQAKSEALVLREKSTLERIHKHQEIETKEIYAQRQLLLKDMDLLRGREAELKQRVEAFELNQKLQEEKHKSITEALRRQEQNIKSFEETYDRKLKNELLKYQLELKDDYIIRTNRLIEDERKNKEKAVHLQEELIAINSKKEELNQSVNRVKELELELESVKAQSLAITKQNHMLNEKVKEMSDYSLLKEEKLELLAQNKLLKQQLEESRNENLRLLNRLAQPAPELAVFQKELRKAEKAIVVEHEEFESCRQALHKQLQDEIEHSAQLKAQILGYKASVKSLTTQVADLKLQLKQTQTALENEVYCNPKQSVIDRSVNGLINGNVVPCNGEISGDFLNNPFKQENVLARMVASRITNYPTAWVEGSSPDSDLEFVANTKARVKELQQEAERLEKAFRSYHRRVIKNSAKSPLAAKSPPSLHLLEAFKNITSSSPERHIFGEDRVVSEQPQVGTLEERNDVVEALTGSAASRLRGGTSSRRLSSTPLPKAKRSLESEMYLEGLGRSHIASPSPCPDRMPLPSPTESRHSLSIPPVSSPPEQKVGLYRRQTELQDKSEFSDVDKLAFKDNEEFESSFESAGNMPRQLEMGGLSPAGDMSHVDAAAAAVPLSYQHPSVDQKQIEEQKEEEKIREQQVKERRQREERRQSNLQEVLERERRELEKLYQERKMIEESLKIKIKKELEMENELEMSNQEIKDKSAHSENPLEKYMKIIQQEQDQESADKSSKKMVQEGSLVDTLQSSDKVESLTGFSHEELDDSW

Legend:
[1] = biological target: T1, Myc-mPCM1 fragment spanning residues 1–1200 (mouse); assay: co-IP; HEK293T transfected with Myc-mPCM1 fragments for 48 h; lysates in ELB buffer (50 mM Hepes pH 7, 150 mM NaCl, 5 mM EDTA, 0.1% NP-40); anti-Myc antibody on Protein G Sepharose, 4°C; western blot for endogenous satellite proteins
[2] = biological target: Myc-tagged full-length mouse PCM1 (mouse) (UniProt Q9R0L6); assay: as above
[3] = biological target: T1, Myc-mPCM1 fragment spanning residues 1–1200 (mouse); assay: co-IP; data not shown: Cep290 with PCM1 fragments
[4] = biological target: T2, Myc-mPCM1 fragment spanning residues 1–1500 (mouse); assay: co-IP; data not shown: Cep290 with PCM1 fragments
[5] = biological target: T2, Myc-mPCM1 fragment spanning residues 1–1500 (mouse); assay: co-IP; HEK293T transfected with Myc-mPCM1 fragments for 48 h; lysates in ELB buffer (50 mM Hepes pH 7, 150 mM NaCl, 5 mM EDTA, 0.1% NP-40); anti-Myc antibody on Protein G Sepharose, 4°C; western blot for endogenous satellite proteins

Molecule | binding [1] | binding [2] | binding [3] | binding [4] | binding [5]
C2CD3, endogenous (from UniProt Q4AC94 1-2353) | no binding | binds |  |  | 
Cep290, endogenous (from UniProt O15078 1-2479) |  |  | binds | binds | 
B1 | no binding | binds |  |  | 
B2 | binds | binds |  |  | binds
